From patent JP2014094898A
Results are given in words; binding and its absence hold for the method and conditions named. In cells and extracts the contact can be indirect. Some binding calls cover weakened binding; strength is not graded here.

The chains behind the UniProt entries cited, without tags or fusion partners.
UniProt P29351: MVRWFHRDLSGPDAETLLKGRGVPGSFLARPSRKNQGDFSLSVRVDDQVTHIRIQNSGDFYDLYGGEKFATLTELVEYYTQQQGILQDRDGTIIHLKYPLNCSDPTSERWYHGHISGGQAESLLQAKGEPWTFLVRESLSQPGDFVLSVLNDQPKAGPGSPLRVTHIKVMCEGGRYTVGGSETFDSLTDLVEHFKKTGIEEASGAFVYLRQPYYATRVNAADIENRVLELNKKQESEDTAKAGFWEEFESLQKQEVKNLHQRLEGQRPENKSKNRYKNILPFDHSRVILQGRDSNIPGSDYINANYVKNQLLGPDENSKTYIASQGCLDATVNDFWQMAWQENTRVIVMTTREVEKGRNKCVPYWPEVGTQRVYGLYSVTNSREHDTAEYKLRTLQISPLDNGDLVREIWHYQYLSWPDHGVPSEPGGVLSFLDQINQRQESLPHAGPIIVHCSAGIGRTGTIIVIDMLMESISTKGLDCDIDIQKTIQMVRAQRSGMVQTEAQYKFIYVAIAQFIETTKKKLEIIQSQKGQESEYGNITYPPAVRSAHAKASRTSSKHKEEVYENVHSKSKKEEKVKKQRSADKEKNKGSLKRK

Target: SHP−1 (mouse) (UniProt P29351)
Assay: co-immunoprecipitation from BMMC lysates with TX41, immunoblot with anti-SHP-1; no recruitment when D89E MFG-E8 was present

B1: マウスCD300a(マウス細胞の内在性) (receptor, mouse, UniProt Q6SJQ0 28-318, looked up)
chain: LHGPSTMSGSVGESLSVSCRYEEKFKTKDKYWCRVSLKILCKDIVKTSSSEEARSGRVTIRDHPDNLTFTVTYESLTLEDADTYMCAVDISLFDGSLGFDKYFKIELSVVPSEDPVSSPGPTLETPVVSTSLPTKGPALGSNTEGHREHDYSQGLRLPALLSVLALLLFLLVGTSLLAWRMFQKRLVKADRHPELSQNLRQASEQNECQYVNLQLHTWSLREEPVLPSQVEVVEYSTLALPQEELHYSSVAFNSQRQDSHANGDSLHQPQDQKAEYSEIQKPRKGLSDLYL
binding: binds
